Measured values as given in patent US20040176274A1, “Analgesic methods using endothelin receptor ligands” (priority 2001, published 2004).
At least one structure is not confirmed: it was looked up by name or label, or the drawing left a doubt.

Test system: ET-1-induced pain in the rat plantar hindpaw
Type: in vivo
Conditions: 0.5 μg CL prior to ET-1 (2 nmol) and IRL-1620 (2 nmol)
From the text: These examples are provided to illustrate the invention and should not be construed as limiting. ETA and ETB Receptors Mediate ET-1-induced Pain in the Rat Plantar Hindpaw An ET-1 animal model of acute pain was used to investigate the signaling pathways involved in endothelin receptor-mediated nociception. In this model system, acute pain was induced under sevoflurane anesthesia by subcutaneous ET-1 injection into the rat plantar hindpaw after 40 seconds of limb cooling. Injections were given either as a single 20 μl bolus for single compound or co-administration studies, or as two 10 μl injections separated by 1-2 minutes for pre-treatment studies, and were delivered into the mid plantar paw approximately 1 cm distal to the heel. Repetitive and spontaneous flinching of the ipsilateral hindpaw were counted in 5 minute blocks, beginning 5 minutes after ET-1 injection, for 75 minutes. […] Data was reported as the mean±s.e.m.

COc1ccc2c(c[n+](C)c3c4cc5c(cc4ccc23)OCO5)c1OC [CL, Chelerythrine chloride]
effect on analgesia of ETB receptor agonists: reversed the analgesic effect of ETB receptor agonists
